Test results: patent US7927581B2, “Peptide-based multimeric targeted contrast agents” (Factor 1A, LLC, priority 2001, dated 2011)
At least one structure is not confirmed: it was looked up by name or label, or the drawing left a doubt. Positions of bridges follow the written chain, without caps; N, C: chain ends. Non-standard residues stand in square brackets, D forms with d. Residues, ends and D or L forms follow the SMILES beside them. Tyr(3-Cl) = N[C@@H](Cc1ccc(O)c(Cl)c1)C(=O)O; Tyr(3-I) = N[C@@H](Cc1ccc(O)c(I)c1)C(=O)O; Hyp = O=C(O)[C@@H]1C[C@@H](O)CN1

Chains of the proteins cited; added tags and fusions are not shown. Residues count along the entry.
UniProt P02671, 124-216: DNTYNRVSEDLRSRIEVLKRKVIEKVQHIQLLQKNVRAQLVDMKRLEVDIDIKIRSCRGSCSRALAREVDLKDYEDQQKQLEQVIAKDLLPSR
UniProt P02671, 36-97: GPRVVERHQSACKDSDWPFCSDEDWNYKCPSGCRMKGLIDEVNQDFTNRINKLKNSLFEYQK
UniProt P02675, 164-491: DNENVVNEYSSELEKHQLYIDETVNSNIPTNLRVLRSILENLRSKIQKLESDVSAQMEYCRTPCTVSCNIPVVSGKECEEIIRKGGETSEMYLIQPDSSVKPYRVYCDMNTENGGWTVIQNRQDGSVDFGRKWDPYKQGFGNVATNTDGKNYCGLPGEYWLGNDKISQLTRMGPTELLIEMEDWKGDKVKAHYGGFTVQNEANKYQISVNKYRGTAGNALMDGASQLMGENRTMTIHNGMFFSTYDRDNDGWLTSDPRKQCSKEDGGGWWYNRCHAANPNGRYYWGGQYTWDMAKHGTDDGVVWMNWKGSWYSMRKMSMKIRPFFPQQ
UniProt P02675, 45-152: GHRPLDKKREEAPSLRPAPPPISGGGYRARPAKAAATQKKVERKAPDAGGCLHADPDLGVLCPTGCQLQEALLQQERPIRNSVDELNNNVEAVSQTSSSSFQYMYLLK
UniProt P02679, 114-432: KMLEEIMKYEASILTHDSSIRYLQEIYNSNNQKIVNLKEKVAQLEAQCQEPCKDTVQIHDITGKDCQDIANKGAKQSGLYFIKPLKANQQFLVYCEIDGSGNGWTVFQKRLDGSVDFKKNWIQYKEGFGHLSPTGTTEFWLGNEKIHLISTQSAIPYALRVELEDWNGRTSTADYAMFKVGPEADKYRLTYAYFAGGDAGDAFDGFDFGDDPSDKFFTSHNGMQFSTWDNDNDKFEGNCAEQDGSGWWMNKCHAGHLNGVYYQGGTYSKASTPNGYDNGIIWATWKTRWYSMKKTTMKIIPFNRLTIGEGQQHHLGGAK
UniProt P02679, 27-88: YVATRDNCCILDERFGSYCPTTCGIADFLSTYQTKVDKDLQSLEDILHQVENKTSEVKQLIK

These compounds were tested against DD(E) fragment of fibrin (Homo sapiens, UniProt P02671+P02675+P02679) (assay: Affinity of cyclized peptides to the DD(E) fragment of fibrin).
Type: binding

Compound	Kd [µM]
CC[C@H](C)[C@H](NC(=O)[C@H](Cc1c[nH]cn1)NC(=O)[C@@H]1CSSC[C@H](NC(=O)[C@H](Cc2c[nH]cn2)NC(=O)[C@@H](N)CCc2ccccc2)C(=O)N2C[C@H](O)C[C@H]2C(=O)N[C@@H](Cc2ccc(O)c(I)c2)C(=O)N[C@@H](CC(=O)O)C(=O)N[C@@H](CC(C)C)C(=O)N1)C(N)=O [Hfe H C Hyp Y(3-I) D L C H I] (HELM PEPTIDE1{[N[C@@H](CCc1ccccc1)C(=O)[*:2]].H.C.[Hyp].[O=C([C@H](Cc1ccc(O)c(I)c1)N[*:1])[*:2]].D.L.C.H.I.[am]}$PEPTIDE1,PEPTIDE1,3:R3-8:R3$$$V2.0; N-terminus and C-terminus assumed)	≤ 0.1
CC[C@H](C)[C@H](NC(=O)[C@H](Cc1c[nH]cn1)NC(=O)[C@@H]1CSSC[C@H](NC(=O)[C@H](Cc2c[nH]cn2)NC(=O)[C@@H](N)Cc2cccnc2)C(=O)N2C[C@H](O)C[C@H]2C(=O)N[C@@H](Cc2ccc(O)c(I)c2)C(=O)N[C@@H](CC(=O)O)C(=O)N[C@@H](CC(C)C)C(=O)N1)C(N)=O [3Pal H C Hyp Y(3-I) D L C H I] (HELM PEPTIDE1{[N[C@@H](Cc1cccnc1)C(=O)[*:2]].H.C.[Hyp].[O=C([C@H](Cc1ccc(O)c(I)c1)N[*:1])[*:2]].D.L.C.H.I.[am]}$PEPTIDE1,PEPTIDE1,3:R3-8:R3$$$V2.0; N-terminus and C-terminus assumed)	≤ 0.1
CC[C@H](C)[C@H](NC(=O)[C@H](Cc1c[nH]cn1)NC(=O)[C@@H]1CSSC[C@H](NC(=O)[C@H](Cc2c[nH]cn2)NC(=O)[C@@H](N)Cc2ccc(Br)cc2)C(=O)N2C[C@H](O)C[C@H]2C(=O)N[C@@H](Cc2ccc(O)c(I)c2)C(=O)N[C@@H](CC(=O)O)C(=O)N[C@@H](CC(C)C)C(=O)N1)C(N)=O [F(4-Br) H C Hyp Y(3-I) D L C H I] (HELM PEPTIDE1{[N[C@@H](Cc1ccc(Br)cc1)C(=O)[*:2]].H.C.[Hyp].[O=C([C@H](Cc1ccc(O)c(I)c1)N[*:1])[*:2]].D.L.C.H.I.[am]}$PEPTIDE1,PEPTIDE1,3:R3-8:R3$$$V2.0; N-terminus and C-terminus assumed)	≤ 0.1
CC[C@H](C)[C@H](NC(=O)[C@H](Cc1c[nH]cn1)NC(=O)[C@@H]1CSSC[C@H](NC(=O)[C@H](Cc2c[nH]cn2)NC(=O)[C@@H](N)Cc2cccc3ccccc23)C(=O)N2C[C@H](O)C[C@H]2C(=O)N[C@@H](Cc2ccc(O)c(I)c2)C(=O)N[C@@H](CC(=O)O)C(=O)N[C@@H](CC(C)C)C(=O)N1)C(N)=O [1Nal H C Hyp Y(3-I) D L C H I] (HELM PEPTIDE1{[N[C@@H](Cc1cccc2ccccc12)C(=O)[*:2]].H.C.[Hyp].[O=C([C@H](Cc1ccc(O)c(I)c1)N[*:1])[*:2]].D.L.C.H.I.[am]}$PEPTIDE1,PEPTIDE1,3:R3-8:R3$$$V2.0; N-terminus and C-terminus assumed)	≤ 0.1
CC[C@H](C)[C@H](NC(=O)[C@H](Cc1c[nH]cn1)NC(=O)[C@@H]1CSSC[C@H](NC(=O)[C@H](Cc2c[nH]cn2)NC(=O)[C@@H](N)Cc2ccc(O)c(Cl)c2)C(=O)N2C[C@H](O)C[C@H]2C(=O)N[C@@H](Cc2ccc(O)c(I)c2)C(=O)N[C@@H](CC(=O)O)C(=O)N[C@@H](CC(C)C)C(=O)N1)C(N)=O [Y(3-Cl) H C Hyp Y(3-I) D L C H I] (HELM PEPTIDE1{[N[C@@H](Cc1ccc(O)c(Cl)c1)C(=O)[*:2]].H.C.[Hyp].[O=C([C@H](Cc1ccc(O)c(I)c1)N[*:1])[*:2]].D.L.C.H.I.[am]}$PEPTIDE1,PEPTIDE1,3:R3-8:R3$$$V2.0; N-terminus and C-terminus assumed)	≤ 0.1
CC[C@H](C)[C@H](NC(=O)[C@H](Cc1c[nH]cn1)NC(=O)[C@@H]1CSSC[C@H](NC(=O)[C@H](Cc2c[nH]cn2)NC(=O)[C@@H](N)Cc2ccc(CN)cc2)C(=O)N2C[C@H](O)C[C@H]2C(=O)N[C@@H](Cc2ccc(O)c(I)c2)C(=O)N[C@@H](CC(=O)O)C(=O)N[C@@H](CC(C)C)C(=O)N1)C(N)=O [F(4-CH2NH2) H C Hyp Y(3-I) D L C H I] (HELM PEPTIDE1{[NCc1ccc(C[C@H](N)C(=O)[*:2])cc1].H.C.[Hyp].[O=C([C@H](Cc1ccc(O)c(I)c1)N[*:1])[*:2]].D.L.C.H.I.[am]}$PEPTIDE1,PEPTIDE1,3:R3-8:R3$$$V2.0; N-terminus and C-terminus assumed)	≤ 0.1
CC(C)C[C@@H]1NC(=O)[C@H](CC(=O)O)NC(=O)[C@H](Cc2ccc(O)c(I)c2)NC(=O)[C@@H]2C[C@@H](O)CN2C(=O)[C@@H](NC(=O)[C@H](Cc2c[nH]cn2)NC(=O)[C@@H](N)Cc2ccccc2)CSSC[C@@H](C(=O)N[C@@H](Cc2c[nH]cn2)C(=O)N[C@@H](Cc2ccc(C(F)(F)F)cc2)C(N)=O)NC1=O [F H C Hyp Y(3-I) D L C H F(4-CF3)] (HELM PEPTIDE1{F.H.C.[Hyp].[O=C([C@H](Cc1ccc(O)c(I)c1)N[*:1])[*:2]].D.L.C.H.[O=C([C@H](Cc1ccc(C(F)(F)F)cc1)N[*:1])[*:2]].[am]}$PEPTIDE1,PEPTIDE1,3:R3-8:R3$$$V2.0; N-terminus and C-terminus assumed)	≤ 0.1
CC[C@H](C)[C@H](NC(=O)[C@H](Cc1c[nH]cn1)NC(=O)[C@@H]1CSSC[C@H](NC(=O)[C@H](Cc2c[nH]cn2)NC(=O)[C@@H](N)Cc2cccc(C(F)(F)F)c2)C(=O)N2C[C@H](O)C[C@H]2C(=O)N[C@@H](Cc2ccc(O)c(I)c2)C(=O)N[C@@H](CC(=O)O)C(=O)N[C@@H](CC(C)C)C(=O)N1)C(N)=O [F(3-CF3) H C Hyp Y(3-I) D L C H I] (HELM PEPTIDE1{[N[C@@H](Cc1cccc(C(F)(F)F)c1)C(=O)[*:2]].H.C.[Hyp].[O=C([C@H](Cc1ccc(O)c(I)c1)N[*:1])[*:2]].D.L.C.H.I.[am]}$PEPTIDE1,PEPTIDE1,3:R3-8:R3$$$V2.0; N-terminus and C-terminus assumed)	≤ 0.1
CCC[C@H](NC(=O)[C@H](Cc1c[nH]cn1)NC(=O)[C@@H]1CSSC[C@H](NC(=O)[C@H](Cc2c[nH]cn2)NC(=O)[C@@H](N)Cc2ccccc2)C(=O)N2C[C@H](O)C[C@H]2C(=O)N[C@@H](Cc2ccc(O)c(I)c2)C(=O)N[C@@H](CC(=O)O)C(=O)N[C@@H](CC(C)C)C(=O)N1)C(N)=O [F H C Hyp Y(3-I) D L C H nVal] (HELM PEPTIDE1{F.H.C.[Hyp].[O=C([C@H](Cc1ccc(O)c(I)c1)N[*:1])[*:2]].D.L.C.H.[Nva].[am]}$PEPTIDE1,PEPTIDE1,3:R3-8:R3$$$V2.0; N-terminus and C-terminus assumed)	≤ 0.2
CC[C@H](C)[C@H](NC(=O)[C@H](Cc1c[nH]c2ccccc12)NC(=O)[C@@H]1CSSC[C@H](NC(=O)[C@H](CCC(=O)O)NC(=O)[C@@H](N)Cc2ccccc2)C(=O)N2C[C@H](O)C[C@H]2C(=O)N[C@@H](Cc2ccc(O)c(Cl)c2)C(=O)NCC(=O)N[C@@H](CC(C)C)C(=O)N1)C(=O)N[C@@H](CCC(N)=O)C(N)=O [F E C Hyp Y(3-Cl) G L C W I Q] (HELM PEPTIDE1{F.E.C.[Hyp].[O=C([C@H](Cc1ccc(O)c(Cl)c1)N[*:1])[*:2]].G.L.C.W.I.Q.[am]}$PEPTIDE1,PEPTIDE1,3:R3-8:R3$$$V2.0; N-terminus and C-terminus assumed)	≤ 0.5
CC[C@H](C)[C@H](NC(=O)[C@H](Cc1c[nH]c2ccccc12)NC(=O)[C@@H]1CSSC[C@H](NC(=O)[C@@H](CCC(=O)O)NC(=O)[C@@H](N)Cc2ccccc2)C(=O)N2C[C@H](O)C[C@H]2C(=O)N[C@@H](Cc2ccc(O)c(Cl)c2)C(=O)NCC(=O)N[C@@H](CC(C)C)C(=O)N1)C(=O)N[C@@H](CCC(N)=O)C(N)=O [F D-E C Hyp Y(3-Cl) G L C W I Q] (HELM PEPTIDE1{F.[dE].C.[Hyp].[O=C([C@H](Cc1ccc(O)c(Cl)c1)N[*:1])[*:2]].G.L.C.W.I.Q.[am]}$PEPTIDE1,PEPTIDE1,3:R3-8:R3$$$V2.0; N-terminus and C-terminus assumed)	≤ 0.3
CC[C@H](C)[C@H](NC(=O)[C@H](Cc1c[nH]cn1)NC(=O)[C@@H]1CSSC[C@H](NC(=O)[C@H](Cc2c[nH]cn2)NC(=O)[C@@H](N)Cc2ccc(OC)cc2)C(=O)N2C[C@H](O)C[C@H]2C(=O)N[C@@H](Cc2ccc(O)c(Cl)c2)C(=O)N[C@@H](CC(=O)O)C(=O)N[C@@H](CC(C)C)C(=O)N1)C(N)=O [F(4-OMe) H C Hyp Y(3-Cl) D L C H I] (H-Y(Me)HC[Hyp][Tyr(3-Cl)]DLCHI-NH2; disulfide 3-8; N-terminus and C-terminus assumed)	≤ 0.1
CC[C@H](C)[C@H](NC(=O)[C@H](Cc1c[nH]c2ccccc12)NC(=O)[C@@H]1CSSC[C@H](NC(=O)[C@@H](CCC(=O)O)NC(=O)[C@@H](N)Cc2c[nH]cn2)C(=O)N2C[C@H](O)C[C@H]2C(=O)N[C@@H](Cc2ccc(O)c(Cl)c2)C(=O)NCC(=O)N[C@@H](CC(C)C)C(=O)N1)C(=O)N[C@@H](CCC(N)=O)C(N)=O [H D-E C Hyp Y(3-Cl) G L C W I Q] (HELM PEPTIDE1{H.[dE].C.[Hyp].[O=C([C@H](Cc1ccc(O)c(Cl)c1)N[*:1])[*:2]].G.L.C.W.I.Q.[am]}$PEPTIDE1,PEPTIDE1,3:R3-8:R3$$$V2.0; N-terminus and C-terminus assumed)	≤ 0.2
COc1ccc(C[C@H](NC(=O)[C@H](Cc2c[nH]cn2)NC(=O)[C@@H]2CSSC[C@H](NC(=O)[C@H](Cc3c[nH]cn3)NC(=O)[C@@H](N)Cc3ccccc3)C(=O)N3C[C@H](O)C[C@H]3C(=O)N[C@@H](Cc3ccc(O)c(I)c3)C(=O)N[C@@H](CC(=O)O)C(=O)N[C@@H](CC(C)C)C(=O)N2)C(N)=O)cc1 [F H C Hyp Y(3-I) D L C H F(4-OMe)] (H-FHC[Hyp][Tyr(3-I)]DLCHY(Me)-NH2; disulfide 3-8; N-terminus and C-terminus assumed)	≤ 0.1
CC[C@H](C)[C@H](NC(=O)[C@H](Cc1c[nH]c2ccccc12)NC(=O)[C@@H]1CSSC[C@H](NC(=O)[C@H](CCC(=O)O)NC(=O)[C@@H](N)Cc2c[nH]c3ccccc23)C(=O)N2C[C@H](O)C[C@H]2C(=O)N[C@@H](Cc2ccc(O)c(Cl)c2)C(=O)NCC(=O)N[C@@H](CC(C)C)C(=O)N1)C(=O)N[C@@H](CCC(N)=O)C(N)=O [W E C Hyp Y(3-Cl) G L C W I Q] (HELM PEPTIDE1{W.E.C.[Hyp].[O=C([C@H](Cc1ccc(O)c(Cl)c1)N[*:1])[*:2]].G.L.C.W.I.Q.[am]}$PEPTIDE1,PEPTIDE1,3:R3-8:R3$$$V2.0; N-terminus and C-terminus assumed)	≤ 0.1
